Measurements reported in PubChem BioAssay AID493014 (National Center for Advancing Translational Sciences (NCATS), 2011).
The other results are listed elsewhere or left out. These are further read-outs of the screen, such as a control signal, another cell line or another target. No call is given for them. Most of these compounds were active or inconclusive in the main read-out, so they are no random draw. The note in brackets gives the kind of curve behind each potency; many fits are weak.

Assay: qHTS Assay to Find Inhibitors of Chronic Active B-Cell Receptor Signaling
Settings: ABC-DLBCL IkBa-CBG/CBR reporter, luminescence ratio (green luciferase fused to IkBa over red control in TMD8 lymphoma cells), 4 h
Outline: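 TMD8 human ABC-DLBCL cells with doxycycline-inducible IκBα–green luciferase fusion and unfused red luciferase, in 0.5% FBS medium; compounds up to 46 uM, 4 h at 37C. Green/red luminescence ratio, filter-overlap corrected, fitted to concentration-response curves.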

[1] = measured here: CBR red luminescence, cell number
[2] = measured here: IkBa-CBG green luminescence

| SMILES | AC50 [1] | AC50 [2] |
| --- | --- | --- |
| Cc1cc(=O)oc2c(C)c(OC(C)C(=O)NCCCn3ccnc3)ccc12 (configuration not stated) | 3.16 µM [falling, single point] | – |
| Cc1ccc(C(C(=O)NC2CCCC2)N(C(=O)Cc2cccs2)c2ccc(C)c(C)c2)o1 (configuration not stated) | 9.2 µM [falling, single point] | – |
| COc1ccc2cc(CN(C(=O)Nc3ccccc3OC)C3CCCC3)c(=O)[nH]c2c1 | 7.08 µM [falling, full curve] | – |
| C=CCc1cccc2cc(-c3nc4ccc(C(=O)O)cc4[nH]3)c(=O)oc12 | 0.501 µM [falling, full curve, poor fit] | – |
| O=C(Nc1ccccc1Br)c1cc(S(=O)(=O)NC2CCCCC2)ccc1F | 35.5 µM [falling, single point] | – |
| Cc1nnc(NC(=O)CSC2=NN3CCCC(=O)N=C3S2)s1 | 25.1 µM [rising, single point] | – |
| N#Cc1cc2c(nc1SCC(=O)Nc1nccs1)CCCCC2 | 0.184 µM [falling, full curve, poor fit] | – |
| CCCc1nc2ccccc2c(=O)n1CCc1ccccc1 | 25.1 µM [falling, single point] | – |
| Cc1ccsc1C(=O)NCC(=O)OCc1ccccc1 | 22.4 µM [falling, partial curve, poor fit] | – |
| C/C(=N\N=C(N)N)c1ccc(Cl)cc1Cl | 35.5 µM [falling, single point] | – |
| Cc1ccc(-n2c(-c3c(-c4ccccc4)noc3C)n[nH]c2=S)cc1 | 6.51 µM [rising, single point] | – |
| CN(C)/C=C/C(=O)Oc1ccc(Cl)cc1Cl | 22.4 µM [rising, single point] | – |
| CN(CC#CC1(O)c2ccccc2-c2ccccc21)Cc1ccccc1 | 2.06 µM [rising, full curve, poor fit] | – |
| CN(C)CCCN(C(=O)c1ccc(S(=O)(=O)N2CCc3ccccc3C2)cc1)c1nc2ccc(F)cc2s1 | 3.16 µM [falling, partial curve] | – |
| Cc1cnc(NC(=O)COc2ccccc2)s1 | 12.6 µM [falling, partial curve] | – |
| C=CCn1c(=O)c(C(=O)Nc2ccccc2O)c(O)c2ccccc21 | 5.01 µM [falling, full curve] | – |
| C=CCNc1nc(Nc2ccc(OC)cc2)nc(OCC)n1 | 1.16 µM [rising, partial curve] | – |
| COc1cc(/C=N/NC(=O)c2[nH]nc3c2CCc2ccccc2-3)ccc1O | – | 29.1 µM [falling, single point] |
| CCOC(=O)c1c(C)oc2c1cc(O)c1ccccc12 | 6.31 µM [rising, partial curve] | – |
| CSCCC(NC(=O)c1cc(S(=O)(=O)N2CCOCC2)ccc1F)c1nc2ccccc2[nH]1 (configuration not stated) | 5.8 µM [falling, partial curve, poor fit] | – |
| O=C(Cc1cccs1)Nc1cccc(-c2nc3ccccc3[nH]2)c1 | 32.6 µM [falling, single point] | – |

Molecules from the list above that contain fluorine:

| SMILES | AC50 [1] | AC50 [2] |
| --- | --- | --- |
| O=C(Nc1ccccc1Br)c1cc(S(=O)(=O)NC2CCCCC2)ccc1F | 35.5 µM [falling, single point] | – |
| CN(C)CCCN(C(=O)c1ccc(S(=O)(=O)N2CCc3ccccc3C2)cc1)c1nc2ccc(F)cc2s1 | 3.16 µM [falling, partial curve] | – |
| CSCCC(NC(=O)c1cc(S(=O)(=O)N2CCOCC2)ccc1F)c1nc2ccccc2[nH]1 (configuration not stated) | 5.8 µM [falling, partial curve, poor fit] | – |

The list goes on:

| SMILES | AC50 [1] | AC50 [2] |
| --- | --- | --- |
| COc1cc(NC(=O)CN2CCN(S(=O)(=O)/C=C/c3ccccc3)CC2)cc(OC)c1OC | 29.1 µM [falling, partial curve, poor fit] | – |
| COc1ccccc1S(=O)(=O)Cc1ccc(C(=O)N2CCN(c3ccccc3)CC2)o1 | 3.16 µM [rising, single point] | – |
| COc1ccc(/C=N/n2cc(-c3ccccc3)nc2N)cc1 | 7.31 µM [falling, partial curve] | – |
| O=Cc1ccc(OCc2nnsc2Cl)cc1 | 2.82 µM [falling, partial curve, poor fit] | – |
| O=C(NCCSc1ccccc1)c1ccccc1 | 1.46 µM [rising, full curve] | – |
| CN(C)S(=O)(=O)c1ccc(N2CCCC2)c(C(=O)NNC(=O)COc2ccccc2Cl)c1 | 0.651 µM [rising, full curve, poor fit] | – |
| COc1cccc(C(=O)CC(=O)C(=O)Nc2cc(OC)ccc2OC)c1 | 0.501 µM [rising, full curve, poor fit] | – |
| Nc1nc(SCc2ccc(Cl)cc2Cl)ns1 | 25.9 µM [rising, single point] | – |
| O=C(O)c1cnn(-c2nc(-c3ccc(Cl)c(Cl)c3)cs2)c1C(F)(F)F | 22.4 µM [falling, single point] | – |
| CCOc1ccc(C(=O)OCC(=O)Nc2ccc(SC(F)F)cc2)cc1OCC | 25.9 µM [rising, single point] | – |
| CC(=O)OCC(=O)[C@@]12OC3(CCCC3)O[C@@H]1C[C@H]1[C@@H]3CCC4=CC(=O)C=C[C@]4(C)[C@@]3(F)[C@@H](O)C[C@@]12C | 16.4 µM [rising, partial curve, poor fit] | – |
| COc1ccc(S(=O)(=O)Nc2ccc3c(c2)n(C)c(=O)n3C)cc1OC | 10 µM [rising, partial curve] | – |
| CCOc1ccc(C(NC(=O)c2ccco2)c2ccc(OC)c(OC)c2)cc1 (configuration not stated) | 0.164 µM [falling, full curve, poor fit] | – |
| CCOc1cc(N2CCOCC2)c(OCC)cc1NC(=O)COC(=O)c1ccccc1C | 6.51 µM [rising, single point] | – |
| O=C(CCCN1C(=O)/C(=C/c2ccccc2)SC1=S)NCCCn1ccnc1 | 3.16 µM [falling, full curve] | – |
| O=C(O)c1cc(-c2ccc(/C=N/NC(=S)Nc3ccccc3)o2)ccc1Cl | 22.4 µM [falling, single point] | – |
| COc1cccc(NC(=O)CN2CCSc3ccccc32)c1 | 11.2 µM [falling, partial curve] | – |
| C=C1C(=O)[C@@]23[C@H](O)C[C@@H]4C(C)(C)CC[C@H](O)[C@@]4(C)[C@@H]2CC[C@@H]1[C@H]3O | 2.06 µM [falling, full curve] | 5.17 µM [rising, partial curve, poor fit] |
| O=C(Nc1ccccc1Br)C1CCCN1S(=O)(=O)c1cccc2nsnc12 (configuration not stated) | 0.562 µM [rising, full curve, poor fit] | – |
| CCO[C@@H]1OC(C(=O)Nc2ccccc2)=C[C@H](c2ccccc2)[C@H]1CCCO | 35.5 µM [rising, single point] | – |
